From patent US20090082304A1, “Methods of Treating Hematological Malignancies with Nucleoside Analog Drugs” (NORTHWESTERN UNIVERSITY, priority 2004, published 2009)
At least one structure is not confirmed: it was looked up by name or label, or the drawing left a doubt.

Columns and labels:
ERK1/2 = experiment: Immunoblot of phospho-ERK1/2 in MM.1 S cells; type: cell-based; conditions: 10 μM, 4 hours, data not shown
Protocol: (§1) 5×10^6 were cells treated with 10 μM 8-NH2-Ado for the indicated times and harvested. Cell pellets were washed with cold phosphate-buffered saline (PBS; 8.1 g NaCl, 1.14 g Na2HPO4, 0.22 g KCl, and 0.25 g/L KH2PO4) and incubated with lysis buffer (50 mM HEPES, 150 mM NaCl, 1.5 mM MgCl2, 1 mM EDTA pH 8.0, 100 mM NaFI, 10 mM Na Pyrophosphate, 500 μM PMSF, 0.5% Triton X-100, 10% glycerol) at 4° C. for one hour. Lysates were centrifuged at 4° C. for 1 minute at 9000×g, and the supernatants were collected and stored at −20° C. Protein concentration was determined by Bio-Rad protein assay (BioRad Laboratories, Hercules, Calif.). Protein, at a concentration of 30 μg, was mixed with sample buffer (125 mM Tris, pH 6.8, 4% SDS, 20% glycerol, 100 mM Dithiothreitol (DTT), and 0.05% bromophenol blue), and fractionated on a pre-cast 8-16% Tris-Glycine gel (Invitrogen/Novex, Carlsbad, Calif.). […]
(§2) MM.1 S cells were grown in dextrose-free media and treated with 2 μM Antimycin A, 5 mM 2-DOG, and varying concentrations of dextrose for 90 minutes. Cellular ATP levels were determined using triplicate samples in a luciferase based assay and are expressed here as a percentage of untreated control.

Akt kinase = experiment: Immunoblot of phospho-Akt in MM.1 S cells; type: cell-based; conditions: 10 μM, 4 hours, data not shown
Protocol: as §1, §2

In the case of Nc1nc(F)nc2c1ncn2[C@@H]1O[C@H](CO)[C@@H](O)[C@@H]1O [Fludarabine], the “phosphorylation of ERK1/2” value (ERK1/2) is reported as “do not cause a decrease” and the “phosphorylation of Akt” value (Akt kinase) is reported as “do not cause a decrease”.
